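A panel of P. falciparum strains inside erythrocytes is exposed to compounds for three days, then a DNA-binding dye reports the amount of parasite DNA.
Each compound was titrated across a series from about 0.000037 to 29 µM.
The number is the fitted AC50, the concentration giving a half-maximal change in signal; a lower value means higher potency, whether the curve shows a decrease or an increase.
Calls follow the curve class and fit quality: every row here is inconclusive, covering signal-raising curves and weak, poorly fitted, partial or highest-dose-only inhibition curves.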

Values are in nM.
All entries here are filed as inconclusive.
Only part of the assay is shown, chiefly results filed as inconclusive.
A potency from a partial, single-point or poor curve is only a rough figure.
Some entries filed as inconclusive have a full curve.
The first word of each remark tells which way the curve ran; it can be opposite to the aim of the assay.

structure,condition,fitted potency (nM),curve
CC(=O)Oc1cc(C(C)C)c(OCCN(C)C)cc1C,CP215,8087,"inhibitor, single point"
CN(C)CCc1c[nH]c2ccc(Cn3cncn3)cc12,CP250,1122,"inhibitor, single point"
CN(C)CCc1c[nH]c2ccc(Cn3cncn3)cc12,W2,1694,"inhibitor, partial curve, poor fit"
CN(C)CCc1c[nH]c2ccc(Cn3cncn3)cc12,TAB109,3981,"inhibitor, single point"
O=c1cc(O)c(Cl)c[nH]1,CP266,2686,"inhibitor, full curve, poor fit"
Cc1c(F)c(N2CCNC(C)C2)cc2c1c(=O)c(C(=O)O)cn2C1CC1 (centres undefined),CP266,338.1,"inhibitor, full curve"
CCCCCl,PC26,19011,"inhibitor, single point"
CCCCCl,JCK,794.3,"activator, partial curve, poor fit"
Nc1nc(/C(=C/CC(=O)O)C(=O)NC2C(=O)N3C(C(=O)O)=CCSC23)cs1 (centres undefined),CP203,16944,"inhibitor, single point"
Nc1nc(/C(=C/CC(=O)O)C(=O)NC2C(=O)N3C(C(=O)O)=CCSC23)cs1 (centres undefined),HB3,10000,"inhibitor, single point"
CO[C@H]1C[C@@H]2CC[C@@H](C)[C@@](O)(O2)C(=O)C(=O)N2CCCC[C@H]2C(=O)O[C@H]([C@H](C)C[C@@H]2CC[C@@H](O)[C@H](OC)C2)CC(=O)[C@H](C)/C=C(\C)[C@@H](O)[C@@H](OC)C(=O)[C@H](C)C[C@H](C)/C=C/C=C/C=C/1C,FAB9,14125,"inhibitor, single point"
CO[C@H]1C[C@@H]2CC[C@@H](C)[C@@](O)(O2)C(=O)C(=O)N2CCCC[C@H]2C(=O)O[C@H]([C@H](C)C[C@@H]2CC[C@@H](O)[C@H](OC)C2)CC(=O)[C@H](C)/C=C(\C)[C@@H](O)[C@@H](OC)C(=O)[C@H](C)C[C@H](C)/C=C/C=C/C=C/1C,CP266,6012,"inhibitor, partial curve, poor fit"
CCC(CC)(CC(=O)Nc1cccc(/C=C/c2nc(C3CCC3)cs2)c1)C(=O)O,7G8,12589,"inhibitor, partial curve"
Cn1cc(NC(=O)c2cc(NC(=O)c3cc(NC=O)cn3C)cn2C)cc1C(=O)NCCC(=N)N,CP262,15101,"inhibitor, single point"
Cn1cc(NC(=O)c2cc(NC(=O)c3cc(NC=O)cn3C)cn2C)cc1C(=O)NCCC(=N)N,CP315,19011,"inhibitor, single point"
Cn1cc(NC(=O)c2cc(NC(=O)c3cc(NC=O)cn3C)cn2C)cc1C(=O)NCCC(=N)N,DFO2036,3981,"inhibitor, single point"
Cn1cc(NC(=O)c2cc(NC(=O)c3cc(NC=O)cn3C)cn2C)cc1C(=O)NCCC(=N)N,CP201,19011,"inhibitor, single point"
Cn1cc(NC(=O)c2cc(NC(=O)c3cc(NC=O)cn3C)cn2C)cc1C(=O)NCCC(=N)N,DIV30,19011,"inhibitor, single point"
Cn1cc(NC(=O)c2cc(NC(=O)c3cc(NC=O)cn3C)cn2C)cc1C(=O)NCCC(=N)N,CP211,16944,"inhibitor, single point"
Cn1cc(NC(=O)c2cc(NC(=O)c3cc(NC=O)cn3C)cn2C)cc1C(=O)NCCC(=N)N,Dd2,3981,"inhibitor, partial curve, poor fit"
Cn1cc(NC(=O)c2cc(NC(=O)c3cc(NC=O)cn3C)cn2C)cc1C(=O)NCCC(=N)N,CP194,13459,"inhibitor, single point"
Cn1cc(NC(=O)c2cc(NC(=O)c3cc(NC=O)cn3C)cn2C)cc1C(=O)NCCC(=N)N,CP266,19011,"inhibitor, single point"
Cn1cc(NC(=O)c2cc(NC(=O)c3cc(NC=O)cn3C)cn2C)cc1C(=O)NCCC(=N)N,PC49,8912,"inhibitor, partial curve"
Cn1cc(NC(=O)c2cc(NC(=O)c3cc(NC=O)cn3C)cn2C)cc1C(=O)NCCC(=N)N,CP215,11995,"inhibitor, single point"
Cn1cc(NC(=O)c2cc(NC(=O)c3cc(NC=O)cn3C)cn2C)cc1C(=O)NCCC(=N)N,CP192,19011,"inhibitor, single point"

Once more, the final 3:

structure	condition	fitted potency (nM)	curve
Cn1cc(NC(=O)c2cc(NC(=O)c3cc(NC=O)cn3C)cn2C)cc1C(=O)NCCC(=N)N	PC49	8912	inhibitor, partial curve
Cn1cc(NC(=O)c2cc(NC(=O)c3cc(NC=O)cn3C)cn2C)cc1C(=O)NCCC(=N)N	CP215	11995	inhibitor, single point
Cn1cc(NC(=O)c2cc(NC(=O)c3cc(NC=O)cn3C)cn2C)cc1C(=O)NCCC(=N)N	CP192	19011	inhibitor, single point

The results are deposited in PubChem (AID504749; NCATS, 2011).